Results from publication PMC8269059, “Glycyrrhizin Derivatives Suppress Cancer Chemoresistance by Inhibiting Progesterone Receptor Membrane Component 1” (Cancers, 2021).
Results are given in words; binding and its absence hold for the method and conditions named. Binding seen in cells or lysates may run through a third protein. Some results given as binding are weak or reduced against the parent protein; the word gives no strength.

By UniProt entry, the sequences of proteins in these tests, tags left out.
UniProt O00264: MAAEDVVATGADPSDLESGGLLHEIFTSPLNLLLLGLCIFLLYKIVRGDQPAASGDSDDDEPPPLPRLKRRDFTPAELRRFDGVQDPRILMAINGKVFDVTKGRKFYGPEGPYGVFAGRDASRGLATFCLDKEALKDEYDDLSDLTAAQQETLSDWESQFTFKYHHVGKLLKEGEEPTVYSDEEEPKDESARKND

Experiments:
[1] = molecular target: FLAG-tagged PGRMC1 (progesterone receptor membrane component 1), full-length (human) (UniProt O00264); test: co-IP; FLAG-PGRMC1 transfected into HCT116 cells; NP40 lysis buffer (20 mM Tris-HCl pH 7.5, 150 mM NaCl, 1% NP40); anti-FLAG (M2) agarose, 60 min, room temperature; western blotting (anti-FLAG, anti-EGFR, anti-LDLR, anti-PGRMC1); cells treated overnight (12 h) with GL or GlucoGL, or for 48 h with vehicle, 250 uM SA and/or 10 uM hemin
[2] = molecular target: FLAG-tagged PGRMC1 (progesterone receptor membrane component 1), full-length (human) (UniProt O00264); test: co-IP; FLAG-PGRMC1 transfected into HuH7 cells; NP40 lysis buffer; anti-FLAG (M2) agarose, 60 min, room temperature; western blotting; cells treated overnight with GL or GlucoGL

Substance	binding [1]	binding [2]
EGF receptor (EGFR), endogenous (from UniProt P00533 25-1210)	binds	binds
low-density lipoprotein receptor (LDLR), endogenous (from UniProt P01130 22-860)	binds	
